Percent effect of library compounds

The filed quantity is “Percent Effect” (%).
The controls that fix the scale are not given in the record; negative values are as filed.
The compounds are a random part of those screened.
Two or more numbers in one place are separate tests of the same structure; such repeats can differ widely.

Mtb cholesterol medium: 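Growth of Mycobacterium tuberculosis over 4 days (cholesterol / DPPC medium with tyloxapol); the read-out is not stated. Compounds at 50 µM. Direction is inferred from retests: higher values go with more growth inhibition. About 69,000 compounds were tested under these conditions; 0.54% (about 370) showed 50% or more at least once.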
Mtb glucose medium: 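Whole-cell growth test on Mycobacterium tuberculosis, read after 3 days in glucose-containing 7H9 medium; the read-out is not stated. Compounds at 50 µM. Higher reads as more growth inhibition (inferred: compounds with an IC50 in retests scored well above the rest). Of about 69,000 compounds tested this way, about 760 (1.1%) reached 50% or more in at least one test.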

{"smiles": "CCC1CCC(NCCN2CCOCC2)CC1", "stereo": "configuration not stated", "Mtb cholesterol medium": 5.573, "Mtb glucose medium": 15.14}
{"smiles": "COCCC1CN(c2nc(-c3ccccc3)nc3c2CCNC3)CCO1", "stereo": "configuration not stated", "Mtb cholesterol medium": "1.187 & 18.74", "Mtb glucose medium": 6.767}
{"smiles": "Cc1ccc(OC2(C(=O)O)CCN(C/C=C/c3ccco3)CC2)cc1", "Mtb cholesterol medium": -6.359, "Mtb glucose medium": "-8.922 & 7.134"}
{"smiles": "Cc1ccc(C(=O)N2Cc3ccccc3OC3(CCOCC3)C2)cn1", "Mtb cholesterol medium": -43.98, "Mtb glucose medium": -6.566}
{"smiles": "Cc1cc2nc(CN(C)c3ccc(Cl)cc3)cc(=O)n2o1", "Mtb cholesterol medium": -13.7, "Mtb glucose medium": -10.72}
{"smiles": "COCc1cc(N2CCOC(c3ccc(Cl)c(Cl)c3)C2)ncn1", "stereo": "configuration not stated", "Mtb cholesterol medium": -0.06992, "Mtb glucose medium": 28.55}
{"smiles": "COc1cccc(OCC(=O)N2CCC3(CC2)[C@H](O)C[C@@H]3OC)c1", "Mtb cholesterol medium": -19.51, "Mtb glucose medium": -17.35}
{"smiles": "NC(=O)c1ccc(OCC(=O)NS(=O)(=O)c2ccc3c(c2)CCC3)cc1", "Mtb cholesterol medium": 1.014, "Mtb glucose medium": -17.41}
{"smiles": "CC(NS(=O)(=O)CCCC#N)c1cccc(-n2cccn2)c1", "stereo": "configuration not stated", "Mtb cholesterol medium": -3.519, "Mtb glucose medium": "-6.025 & -11.79"}
{"smiles": "[H][C@]12CC[C@]([H])(CN(S(=O)(=O)c3ccccc3)C1)N(Cc1cscn1)C2=O", "Mtb cholesterol medium": -11.53, "Mtb glucose medium": -29.23}
{"smiles": "O=C(O)C(F)(F)F.[H][C@]12CCC[C@@]1(COCc1cccnc1)CN(S(=O)(=O)N(C)C)C2", "Mtb cholesterol medium": -9.99, "Mtb glucose medium": 22.27}
{"smiles": "Nc1nnc(Cn2nnc(-c3ccccc3F)n2)s1", "Mtb cholesterol medium": 6.942, "Mtb glucose medium": -3.638}
{"smiles": "CC(NC(=O)c1ccoc1)C(=O)N(C)Cc1ccsc1", "stereo": "configuration not stated", "Mtb cholesterol medium": 5.927, "Mtb glucose medium": "0.4166 & 9.535"}
{"smiles": "COCCNC(=O)C(C)n1nc(-c2ccc(C)o2)cc(N)c1=O", "stereo": "configuration not stated", "Mtb cholesterol medium": "-11.91 & -59.16", "Mtb glucose medium": -70.64}
{"smiles": "CC1CN(S(=O)(=O)c2ccc(F)cc2)c2cccnc2O1", "stereo": "configuration not stated", "Mtb cholesterol medium": -14.85, "Mtb glucose medium": "0.7613 & -3.905"}
{"smiles": "O[C@@H]1CN(CC2CC2)CC[C@H]1N1CCN(c2ccccc2F)CC1", "Mtb cholesterol medium": -5.923, "Mtb glucose medium": "7.857 & 1.163"}
{"smiles": "CN(C(=O)Cn1nc(-c2ccccc2)ccc1=O)C1CCS(=O)(=O)C1", "stereo": "configuration not stated", "Mtb cholesterol medium": -8.448, "Mtb glucose medium": -32.59}
{"smiles": "CCN1CCCN(c2ccc(-n3ccc(C)n3)nn2)CC1", "Mtb cholesterol medium": -9.375, "Mtb glucose medium": "12.86 & 0.8211"}
{"smiles": "Cc1nc2cc(=O)[nH]n2c(C)c1CC(=O)Nc1cnn(C(C)(C)C)c1", "Mtb cholesterol medium": -3.521, "Mtb glucose medium": "-29.45 & -0.2827"}
{"smiles": "O=C(O)C(F)(F)F.[H][C@@]12CCN(c3cccnc3)C[C@]1([H])CN(C(=O)c1cnccn1)C2", "Mtb cholesterol medium": -15.34, "Mtb glucose medium": -18.57}
{"smiles": "CCn1cc(NC(=O)NCCN2CCc3ccccc3C2)cn1", "Mtb cholesterol medium": 21.3, "Mtb glucose medium": 22.41}
{"smiles": "Cc1cc(C)c2[nH]c(C(=O)NCCN3CCNC3=O)c(C)c2c1", "Mtb cholesterol medium": -12.02, "Mtb glucose medium": -6.468}

The values are deposited in ChEMBL (CHEMBL3988442, “University of Dundee, Small-Polar-MMV Screening Library” (2021)).